Results published in publication PMC12408839.
These are yes or no findings as the source states them, for the method shown. Binding seen in cells or lysates may run through a third protein. Some entries that bind do so weakly or less than the wild type.

By UniProt entry, the sequences of proteins in these tests, tags left out.
UniProt Q9Z351: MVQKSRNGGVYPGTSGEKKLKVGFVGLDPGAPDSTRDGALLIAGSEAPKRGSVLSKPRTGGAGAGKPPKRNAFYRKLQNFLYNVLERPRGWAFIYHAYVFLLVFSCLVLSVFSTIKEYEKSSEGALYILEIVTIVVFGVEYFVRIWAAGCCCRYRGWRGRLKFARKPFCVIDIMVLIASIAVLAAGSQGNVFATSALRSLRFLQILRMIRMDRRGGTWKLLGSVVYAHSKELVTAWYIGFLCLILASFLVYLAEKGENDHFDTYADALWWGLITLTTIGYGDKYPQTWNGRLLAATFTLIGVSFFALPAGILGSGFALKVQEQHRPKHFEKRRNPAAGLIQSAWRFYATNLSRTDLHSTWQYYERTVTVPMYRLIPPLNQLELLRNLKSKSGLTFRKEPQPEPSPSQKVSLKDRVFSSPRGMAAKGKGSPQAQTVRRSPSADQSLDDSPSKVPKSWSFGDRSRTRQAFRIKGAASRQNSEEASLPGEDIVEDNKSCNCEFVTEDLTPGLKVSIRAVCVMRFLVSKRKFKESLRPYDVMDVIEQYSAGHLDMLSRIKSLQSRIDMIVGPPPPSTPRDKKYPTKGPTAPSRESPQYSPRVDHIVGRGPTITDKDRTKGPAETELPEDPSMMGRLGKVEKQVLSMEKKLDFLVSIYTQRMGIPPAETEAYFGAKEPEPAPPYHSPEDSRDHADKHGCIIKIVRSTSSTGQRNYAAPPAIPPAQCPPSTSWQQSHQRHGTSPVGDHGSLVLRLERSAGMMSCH

Molecular target: T1, neuronal pentraxin 1 (NPTX1) (mouse (endogenous in dentate gyrus tissue)) (UniProt Q62443)
T1 sequence: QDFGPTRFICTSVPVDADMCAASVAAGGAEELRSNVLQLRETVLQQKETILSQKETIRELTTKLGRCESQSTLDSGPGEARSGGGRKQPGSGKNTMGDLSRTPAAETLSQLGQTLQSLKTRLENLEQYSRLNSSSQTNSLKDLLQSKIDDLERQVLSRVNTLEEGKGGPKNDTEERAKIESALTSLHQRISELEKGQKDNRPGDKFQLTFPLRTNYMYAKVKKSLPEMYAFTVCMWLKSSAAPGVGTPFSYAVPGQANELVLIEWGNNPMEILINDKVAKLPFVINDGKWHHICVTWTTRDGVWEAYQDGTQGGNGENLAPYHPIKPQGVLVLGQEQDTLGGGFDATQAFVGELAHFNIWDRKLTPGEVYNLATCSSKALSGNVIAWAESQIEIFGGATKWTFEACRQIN
Assay: co-IP; DG tissue of C57BL/6J male mice (young; also young against aged mice) homogenised in RIPA buffer with protease and phosphatase inhibitors; 3 ug anti-NPTX1 antibody or control IgG, 4 h at 4 °C, Protein A/G magnetic beads overnight at 4 °C; blot with anti-KCNQ2 and anti-NPTX1

binding: binds
Substance: KCNQ2 (Kv7.2) (from UniProt Q9Z351 1-759)
